PubChem BioAssay AID504786, Drosophila RNAi Screening Center, 2011
The screen tested about 21,000 reagents; below is a random part of those that have a named target and a result. 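Primary screen; positive scores mean lost reporter signal, so the sign may be inverted from the usual convention.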 The numbers tell different reagents against one gene apart. A plus sign joins genes that one reagent is predicted to hit. Further read-outs or replicates are left out here.

Test: 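Positive regulators of HIF-driven reporter output in Drosophila cells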 (primary screen)
System: Drosophila S2 cells with a stable HIF luciferase reporter
Reagent: long dsRNA against Drosophila genes, about 0.2 µg dsRNA per well of a 384-well plate
Timing: three days of knock-down, then 20 h of DFO before reading
Treatment: desferrioxamine (DFO) at 100 µM, an iron chelator that mimics hypoxia, for 20 h
Detection: 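HIF reporter luminescence in cells given 100 µM DFO for 20 h, using the mouse ldh-a hypoxia-response element, scored as per-plate z-scores; higher means greater loss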
Reading the numbers: z-score: higher = stronger loss of HIF reporter signal

gene | dsRNA no. | z-score, replicate 1 | z-score, replicate 2
Skp2 | 1 | -0.1 | 1
Tim17b1 | 1 | -0.3 | -0.5
ana | 1 | -0.3 | -0.7
scrib | 1 | 0.8 | 0.2
scrib | 2 | -0.3 | -0.2
scrib | 3 | 0.3 | 1.5
Cep97 | 1 | -0.4 | -0.5
ras | 1 | -0.6 | -1
Or33b | 1 | 0 | -0.4
Ipk2 | 1 | -0.2 | -0.2
Ugt302E1 | 1 | -0.2 | -0.3
CG10035 | 1 | -0.2 | 0.3
Not10 | 1 | -0.4 | -0.5
Npc1b | 1 | -0.2 | -0.2
Glut1 | 1 | 0 | -0.2
Glut1 | 2 | -0.2 | -0.2
Ir52a | 1 | -0.3 | -0.1
CG12643 | 1 | -0.2 | 0.3
kek6 | 1 | -0.4 | -0.4
Opbp | 1 | -0.1 | -0.2
CG17803 | 1 | -0.5 | -0.8
CG34304 (retired record) | 1 | -0.4 | -0.5
mRpL52 | 1 | 0.9 | 1.3
CG9806 | 1 | -0.2 | -0.8
CG3156 | 1 | -0.3 | -0.4
ClC-a | 1 | -0.4 | 0.3
ClC-a | 2 | -0.4 | -0.3
ClC-a | 3 | -0.2 | -0.3
CG18048 | 1 | -0.3 | -0.6
Syt14 | 1 | -0.3 | -0.3
Ir60b | 1 | -0.2 | -0.2
CG33281 | 1 | -0.3 | -0.3
up | 1 | 0 | 0.2
Orcokinin | 1 | -0.4 | -0.7
LTV1 | 1 | -0.2 | 0.2
CG4730 | 1 | -0.3 | 0.6
Srp54k | 1 | -0.7 | -1.4
modSP | 1 | -0.5 | -0.2
modSP | 2 | -0.2 | -0.5
CG34197 (retired record) | 1 | -0.2 | -0.2
CG7164 | 1 | -0.1 | -0.1
CG3430 | 1 | -0.3 | -0.2
Polr1D + DCTN6-p27 | 1 | 0.7 | 1.8
CG13110 | 1 | 0.2 | 0.1
Nup93-2 | 1 | 0 | -0.2
yl | 1 | -0.4 | -0.7
Cerk | 1 | -0.4 | -0.6
alphaTub85E | 1 | 2.8 | 3.5
BBS5 | 1 | -0.2 | -0.4
PIG-T | 1 | -0.3 | -0.6
CG15631 | 1 | -0.3 | -0.2
en | 1 | -0.1 | -0.3
Klp31E | 1 | -0.2 | -0.6
MED17 | 1 | 0.5 | 1.7
Acbp3 | 1 | -0.2 | -0.1
Cyp4e1 | 1 | -0.3 | -0.3
CG7766 | 1 | -0.4 | -0.1
beat-Vb | 1 | -0.2 | 0.5
beat-Vb | 2 | 1.4 | -0.1
beat-Vb | 3 | 0 | 0.5
Naa80 | 1 | -0.6 | 0.2
Gprk1 | 1 | 0.2 | -0.2
Gprk1 | 2 | 0.3 | 0.4
ich | 1 | -0.4 | -0.3
ich | 2 | -0.1 | -0.1
CG3408 | 1 | -0.3 | -0.3
Flo1 | 1 | -0.2 | -0.3
Pex12 | 1 | 1 | 2.2
Surf4 | 1 | -0.1 | -0.1
ImpE3 | 1 | 0.4 | 0.6
mRpL38 | 1 | 1.3 | 1.1
dac | 1 | 0.3 | 0
CG34221 | 1 | 0 | 0.1
Ass + CG31286 | 1 | -0.4 | -0.7
CanB | 1 | -0.2 | -0.1
CG18547 | 1 | 0 | 0
cg | 1 | 5.1 | 7.1
kar | 1 | -0.2 | -0.5
slo | 1 | -0.3 | -0.4
Smox | 1 | -0.3 | -0.2
CG33111 | 1 | -0.3 | -0.4
CG33111 | 2 | -0.3 | -0.6
Pfdn6 | 1 | -0.3 | -0.7

Sorted by “z-score, replicate 1” (lowest first): 5 of the entries above.
gene | dsRNA no. | z-score, replicate 1 | z-score, replicate 2
Tim17b1 | 1 | -0.3 | -0.5
ana | 1 | -0.3 | -0.7
scrib | 2 | -0.3 | -0.2
Skp2 | 1 | -0.1 | 1
scrib | 1 | 0.8 | 0.2
